Test results published in paper PMC3334623.
These are yes or no findings as the source states them, for the method shown. Binding seen in cells or lysates may run through a third protein. Here binding means that the protein was enriched with, or labelled near, the bait; the list need not be complete. Sequences can lack the tags named with a protein.

Sequences of proteins named here, by UniProt entry; tags and fusion partners are left off.
UniProt Q3UHR0: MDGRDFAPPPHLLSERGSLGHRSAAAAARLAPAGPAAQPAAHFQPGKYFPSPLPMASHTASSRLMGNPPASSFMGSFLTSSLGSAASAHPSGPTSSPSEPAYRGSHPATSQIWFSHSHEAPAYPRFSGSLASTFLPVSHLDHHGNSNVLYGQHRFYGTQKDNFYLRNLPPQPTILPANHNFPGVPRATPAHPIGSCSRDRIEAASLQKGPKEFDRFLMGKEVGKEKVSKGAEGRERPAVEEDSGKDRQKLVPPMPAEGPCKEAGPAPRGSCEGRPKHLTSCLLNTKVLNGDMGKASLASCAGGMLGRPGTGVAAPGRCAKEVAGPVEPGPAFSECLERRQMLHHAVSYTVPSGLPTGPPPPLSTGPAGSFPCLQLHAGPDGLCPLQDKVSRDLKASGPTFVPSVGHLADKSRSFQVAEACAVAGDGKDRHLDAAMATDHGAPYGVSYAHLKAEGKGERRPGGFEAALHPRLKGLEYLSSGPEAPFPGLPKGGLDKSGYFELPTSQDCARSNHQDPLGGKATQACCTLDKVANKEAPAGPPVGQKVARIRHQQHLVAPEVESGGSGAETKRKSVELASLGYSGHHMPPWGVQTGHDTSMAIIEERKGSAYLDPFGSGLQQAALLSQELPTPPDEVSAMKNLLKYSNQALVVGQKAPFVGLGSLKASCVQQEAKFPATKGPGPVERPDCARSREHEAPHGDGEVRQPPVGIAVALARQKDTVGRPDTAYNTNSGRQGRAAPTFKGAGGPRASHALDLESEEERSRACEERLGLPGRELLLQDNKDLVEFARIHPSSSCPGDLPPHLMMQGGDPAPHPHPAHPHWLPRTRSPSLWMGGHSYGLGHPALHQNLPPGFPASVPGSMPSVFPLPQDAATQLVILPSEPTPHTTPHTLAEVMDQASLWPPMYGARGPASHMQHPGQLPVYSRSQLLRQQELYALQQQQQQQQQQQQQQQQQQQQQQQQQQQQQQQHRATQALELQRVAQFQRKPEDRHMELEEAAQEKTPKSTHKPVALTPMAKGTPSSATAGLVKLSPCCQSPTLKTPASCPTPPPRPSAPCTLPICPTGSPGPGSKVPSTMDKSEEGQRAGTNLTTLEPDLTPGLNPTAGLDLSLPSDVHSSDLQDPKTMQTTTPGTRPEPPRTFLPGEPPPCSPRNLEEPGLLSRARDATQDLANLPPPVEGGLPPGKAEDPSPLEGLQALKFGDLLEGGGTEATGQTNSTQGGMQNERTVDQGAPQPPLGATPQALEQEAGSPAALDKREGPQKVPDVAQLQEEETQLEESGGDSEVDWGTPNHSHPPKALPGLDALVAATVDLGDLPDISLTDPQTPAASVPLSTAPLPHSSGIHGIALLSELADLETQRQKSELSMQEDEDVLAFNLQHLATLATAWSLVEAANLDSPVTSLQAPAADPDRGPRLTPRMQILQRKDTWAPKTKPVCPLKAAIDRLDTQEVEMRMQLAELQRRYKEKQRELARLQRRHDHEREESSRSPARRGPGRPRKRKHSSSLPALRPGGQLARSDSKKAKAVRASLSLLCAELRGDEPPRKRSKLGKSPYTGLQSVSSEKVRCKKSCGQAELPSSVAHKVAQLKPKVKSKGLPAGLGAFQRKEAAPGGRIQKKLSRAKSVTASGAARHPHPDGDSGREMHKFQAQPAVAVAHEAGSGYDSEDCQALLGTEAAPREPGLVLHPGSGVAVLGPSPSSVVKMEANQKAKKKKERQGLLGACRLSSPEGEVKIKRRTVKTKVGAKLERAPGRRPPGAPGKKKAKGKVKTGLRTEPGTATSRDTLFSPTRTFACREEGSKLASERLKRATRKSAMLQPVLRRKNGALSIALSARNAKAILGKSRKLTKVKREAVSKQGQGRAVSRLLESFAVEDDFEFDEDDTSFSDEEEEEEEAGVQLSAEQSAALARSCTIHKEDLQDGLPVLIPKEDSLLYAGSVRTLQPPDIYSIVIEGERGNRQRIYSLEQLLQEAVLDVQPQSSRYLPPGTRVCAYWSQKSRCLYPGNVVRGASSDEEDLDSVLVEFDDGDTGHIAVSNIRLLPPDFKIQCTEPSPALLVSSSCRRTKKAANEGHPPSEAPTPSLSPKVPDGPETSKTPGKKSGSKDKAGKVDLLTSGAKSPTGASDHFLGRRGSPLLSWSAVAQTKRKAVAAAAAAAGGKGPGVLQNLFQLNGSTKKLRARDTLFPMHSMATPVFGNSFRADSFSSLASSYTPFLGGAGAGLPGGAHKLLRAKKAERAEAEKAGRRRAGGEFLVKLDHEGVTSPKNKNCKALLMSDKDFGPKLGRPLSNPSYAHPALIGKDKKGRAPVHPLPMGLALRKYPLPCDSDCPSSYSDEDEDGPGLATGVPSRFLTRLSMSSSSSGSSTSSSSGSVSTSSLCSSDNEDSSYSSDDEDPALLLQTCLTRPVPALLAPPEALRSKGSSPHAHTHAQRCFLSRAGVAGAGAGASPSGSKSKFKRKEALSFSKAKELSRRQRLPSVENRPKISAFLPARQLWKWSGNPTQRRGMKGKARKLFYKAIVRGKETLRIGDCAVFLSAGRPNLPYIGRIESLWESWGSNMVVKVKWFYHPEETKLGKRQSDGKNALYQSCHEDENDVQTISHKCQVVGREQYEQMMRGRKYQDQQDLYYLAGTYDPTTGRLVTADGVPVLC
UniProt O09106: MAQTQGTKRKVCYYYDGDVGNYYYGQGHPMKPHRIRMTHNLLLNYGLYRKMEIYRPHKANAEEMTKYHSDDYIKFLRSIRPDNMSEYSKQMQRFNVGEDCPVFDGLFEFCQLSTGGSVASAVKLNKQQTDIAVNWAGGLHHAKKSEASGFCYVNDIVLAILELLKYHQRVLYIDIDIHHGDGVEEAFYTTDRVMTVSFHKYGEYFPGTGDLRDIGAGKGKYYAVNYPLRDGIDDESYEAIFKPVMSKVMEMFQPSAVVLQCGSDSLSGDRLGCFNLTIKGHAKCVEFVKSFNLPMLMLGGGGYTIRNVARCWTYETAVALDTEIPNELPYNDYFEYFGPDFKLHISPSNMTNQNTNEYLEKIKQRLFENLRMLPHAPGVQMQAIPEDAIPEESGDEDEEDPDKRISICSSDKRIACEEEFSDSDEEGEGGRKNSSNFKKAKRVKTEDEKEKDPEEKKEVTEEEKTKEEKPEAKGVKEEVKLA
UniProt P28574: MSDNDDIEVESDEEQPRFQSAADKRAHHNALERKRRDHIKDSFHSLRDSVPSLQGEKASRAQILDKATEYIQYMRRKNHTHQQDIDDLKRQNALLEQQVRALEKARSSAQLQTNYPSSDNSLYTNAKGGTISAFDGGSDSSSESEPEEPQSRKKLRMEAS
UniProt P70288: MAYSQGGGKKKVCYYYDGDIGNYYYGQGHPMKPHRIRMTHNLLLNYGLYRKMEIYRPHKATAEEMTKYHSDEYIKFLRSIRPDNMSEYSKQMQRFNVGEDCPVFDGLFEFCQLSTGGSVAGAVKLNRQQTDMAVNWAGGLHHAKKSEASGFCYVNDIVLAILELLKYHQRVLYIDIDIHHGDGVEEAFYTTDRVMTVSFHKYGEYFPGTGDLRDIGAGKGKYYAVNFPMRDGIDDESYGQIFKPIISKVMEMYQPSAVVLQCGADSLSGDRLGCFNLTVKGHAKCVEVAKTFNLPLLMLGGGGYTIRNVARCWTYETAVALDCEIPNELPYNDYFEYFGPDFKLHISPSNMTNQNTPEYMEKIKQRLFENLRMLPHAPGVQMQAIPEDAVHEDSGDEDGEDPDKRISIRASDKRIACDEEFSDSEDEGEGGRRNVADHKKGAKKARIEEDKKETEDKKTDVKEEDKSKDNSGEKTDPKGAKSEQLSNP
UniProt P23198: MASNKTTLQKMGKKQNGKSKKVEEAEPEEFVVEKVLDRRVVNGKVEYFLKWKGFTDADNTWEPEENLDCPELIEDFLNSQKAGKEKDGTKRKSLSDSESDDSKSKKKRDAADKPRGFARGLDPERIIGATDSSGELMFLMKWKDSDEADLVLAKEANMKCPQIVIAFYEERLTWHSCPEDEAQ
UniProt Q9JJZ6: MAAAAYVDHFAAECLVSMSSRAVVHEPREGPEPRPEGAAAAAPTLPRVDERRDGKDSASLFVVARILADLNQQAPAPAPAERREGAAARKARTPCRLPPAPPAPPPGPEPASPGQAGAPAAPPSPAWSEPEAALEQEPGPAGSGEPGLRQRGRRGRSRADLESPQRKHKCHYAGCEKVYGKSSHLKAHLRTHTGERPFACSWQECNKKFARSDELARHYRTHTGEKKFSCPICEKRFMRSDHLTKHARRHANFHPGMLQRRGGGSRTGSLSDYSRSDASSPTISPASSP
UniProt Q3UCQ1: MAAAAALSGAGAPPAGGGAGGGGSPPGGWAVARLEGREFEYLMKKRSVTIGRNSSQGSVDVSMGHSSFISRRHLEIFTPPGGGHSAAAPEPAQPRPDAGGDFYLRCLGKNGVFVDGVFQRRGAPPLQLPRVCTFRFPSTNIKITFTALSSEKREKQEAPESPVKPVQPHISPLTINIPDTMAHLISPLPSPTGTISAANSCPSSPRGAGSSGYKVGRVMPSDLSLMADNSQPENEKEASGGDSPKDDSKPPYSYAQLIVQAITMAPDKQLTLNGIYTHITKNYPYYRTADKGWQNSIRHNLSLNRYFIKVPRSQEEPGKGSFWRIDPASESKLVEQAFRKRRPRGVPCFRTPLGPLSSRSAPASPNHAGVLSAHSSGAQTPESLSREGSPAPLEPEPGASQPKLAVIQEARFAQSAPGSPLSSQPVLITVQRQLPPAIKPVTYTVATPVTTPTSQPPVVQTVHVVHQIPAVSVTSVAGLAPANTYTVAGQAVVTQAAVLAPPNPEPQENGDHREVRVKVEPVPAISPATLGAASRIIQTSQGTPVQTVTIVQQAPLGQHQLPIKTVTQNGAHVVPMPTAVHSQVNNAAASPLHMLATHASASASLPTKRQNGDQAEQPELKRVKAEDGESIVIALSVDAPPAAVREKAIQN
UniProt Q8BSN5: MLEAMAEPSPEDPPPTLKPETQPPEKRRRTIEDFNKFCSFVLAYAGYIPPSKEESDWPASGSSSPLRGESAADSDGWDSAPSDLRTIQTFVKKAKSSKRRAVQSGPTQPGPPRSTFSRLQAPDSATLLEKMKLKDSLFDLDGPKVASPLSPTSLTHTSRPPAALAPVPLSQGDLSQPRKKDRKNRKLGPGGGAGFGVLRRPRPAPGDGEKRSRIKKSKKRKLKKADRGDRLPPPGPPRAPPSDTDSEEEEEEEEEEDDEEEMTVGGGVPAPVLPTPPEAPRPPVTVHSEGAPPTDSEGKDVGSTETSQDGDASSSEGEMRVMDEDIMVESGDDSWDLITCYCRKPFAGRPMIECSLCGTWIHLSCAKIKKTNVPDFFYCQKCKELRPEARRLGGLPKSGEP
UniProt P63087: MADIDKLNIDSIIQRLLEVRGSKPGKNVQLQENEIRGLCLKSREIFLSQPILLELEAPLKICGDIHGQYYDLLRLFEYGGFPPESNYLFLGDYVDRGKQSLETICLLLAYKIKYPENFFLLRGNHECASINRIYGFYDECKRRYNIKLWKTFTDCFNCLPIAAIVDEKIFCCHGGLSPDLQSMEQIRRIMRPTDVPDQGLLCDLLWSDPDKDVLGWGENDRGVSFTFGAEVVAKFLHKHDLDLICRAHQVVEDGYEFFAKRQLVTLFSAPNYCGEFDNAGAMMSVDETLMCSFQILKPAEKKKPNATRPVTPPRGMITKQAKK
UniProt O54946: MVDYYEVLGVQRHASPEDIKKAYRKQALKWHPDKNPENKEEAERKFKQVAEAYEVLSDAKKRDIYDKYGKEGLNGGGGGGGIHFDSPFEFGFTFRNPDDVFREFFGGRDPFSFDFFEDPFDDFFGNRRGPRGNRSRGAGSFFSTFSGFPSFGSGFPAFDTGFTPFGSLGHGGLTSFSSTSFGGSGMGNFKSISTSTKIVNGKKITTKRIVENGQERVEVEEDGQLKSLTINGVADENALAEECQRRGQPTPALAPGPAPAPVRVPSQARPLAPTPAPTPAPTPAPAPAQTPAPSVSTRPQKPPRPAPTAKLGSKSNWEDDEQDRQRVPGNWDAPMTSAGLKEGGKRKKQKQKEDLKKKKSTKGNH

T1: Sin3a-3xFLAG (mouse) (UniProt Q60520)
T1 sequence: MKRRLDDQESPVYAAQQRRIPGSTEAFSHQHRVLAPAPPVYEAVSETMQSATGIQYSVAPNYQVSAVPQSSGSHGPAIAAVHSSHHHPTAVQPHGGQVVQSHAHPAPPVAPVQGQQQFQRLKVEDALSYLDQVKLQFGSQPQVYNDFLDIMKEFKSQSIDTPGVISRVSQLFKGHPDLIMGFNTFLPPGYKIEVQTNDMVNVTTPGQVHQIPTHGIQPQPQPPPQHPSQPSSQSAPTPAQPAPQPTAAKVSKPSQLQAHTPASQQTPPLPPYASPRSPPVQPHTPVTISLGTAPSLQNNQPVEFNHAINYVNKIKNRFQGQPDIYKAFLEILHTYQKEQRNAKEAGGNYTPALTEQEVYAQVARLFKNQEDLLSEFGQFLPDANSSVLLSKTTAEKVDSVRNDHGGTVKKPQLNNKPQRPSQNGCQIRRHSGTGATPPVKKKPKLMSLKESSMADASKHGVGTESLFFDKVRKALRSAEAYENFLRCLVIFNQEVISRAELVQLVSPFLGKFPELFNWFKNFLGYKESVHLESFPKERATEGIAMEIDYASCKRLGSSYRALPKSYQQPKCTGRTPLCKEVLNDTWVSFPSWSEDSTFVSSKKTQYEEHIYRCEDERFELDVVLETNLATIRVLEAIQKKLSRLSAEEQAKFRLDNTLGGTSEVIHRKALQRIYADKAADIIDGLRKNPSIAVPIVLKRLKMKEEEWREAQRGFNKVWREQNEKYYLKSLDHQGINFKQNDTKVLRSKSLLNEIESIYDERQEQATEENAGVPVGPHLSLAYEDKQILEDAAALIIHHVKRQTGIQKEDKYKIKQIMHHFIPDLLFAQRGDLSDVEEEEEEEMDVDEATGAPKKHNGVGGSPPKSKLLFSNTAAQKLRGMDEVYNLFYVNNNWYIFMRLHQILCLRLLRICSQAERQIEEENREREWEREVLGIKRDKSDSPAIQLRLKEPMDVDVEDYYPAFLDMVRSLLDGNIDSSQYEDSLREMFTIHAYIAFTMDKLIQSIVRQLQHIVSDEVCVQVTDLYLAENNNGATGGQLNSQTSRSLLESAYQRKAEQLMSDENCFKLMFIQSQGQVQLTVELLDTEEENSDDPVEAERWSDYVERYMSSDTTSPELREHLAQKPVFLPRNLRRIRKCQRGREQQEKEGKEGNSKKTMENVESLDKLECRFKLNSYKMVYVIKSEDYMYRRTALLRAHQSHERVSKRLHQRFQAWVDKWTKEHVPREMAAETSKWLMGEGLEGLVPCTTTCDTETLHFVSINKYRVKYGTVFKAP


target: T1, Sin3a-3xFLAG (mouse); test: affinity purification with mass spectrometry; anti-FLAG M2 resin, 4 h at 4 °C, with 13-15 mg nuclear extract of E14tg2a ES cells expressing Sin3a-3xFLAG or 3xFLAG alone; IP buffer 25 mM HEPES-KOH pH 7.6, 140 mM KCl, 10% glycerol, 0.1% Igepal CA-630; washes with 250 mM KCl; elution with 3x FLAG peptide; SDS-PAGE and LC-MS/MS; four independent pull downs

Molecule | binding
Bahcc1 (from UniProt Q3UHR0 1-2643) | binds
Hdac1 (from UniProt O09106 1-482) | binds
Max (from UniProt P28574 1-160) | binds
Hdac2 (from UniProt P70288 1-488) | binds
Cbx3 (from UniProt P23198 1-183) | binds
Klf13 (from UniProt Q9JJZ6 1-289) | binds
Brms1 (protein, UniProt Q99N20 1-246) MPIQPSGKETEEMEAEGDSAAEMNGEADESEEERSGSQTESEEESSEMDDEDYERRRSECVSEMLDLEKQFSELKEKLFRERLSQLRLRLEEVGAERAPEYTEPLGGLQQSLKIRIQVAGIYKGFCLDVIRNKYECELQGAKQHLESEKMLLYDTLLGELQERIQRLEEDRQSLDISSEWWDDKLHSRSSSKAGDAMPPSKRKKAPLVSGPYIVYMLQEIDILEDWTAIKKARAAVSPQKRKADGP | binds
Pspc1 (protein, UniProt Q8R326 1-523) MMLRGNLKQVRIEKNPARLRALESAAGESEPVAAAAMALTLAGEQAPPPAPSEEHPDEELGFTIDIKSFLKPGEKTYTQRCRLFVGNLPTDITEEDFKRLFERYGEPSEVFINRDRGFGFIRLESRTLAEIAKAELDGTILKSRPLRIRFATHGAALTVKNLSPVVSNELLEQAFSQFGPVEKAVVVVDDRGRATGKGFVEFAAKPPARKALERCGDGAFLLTTTPRPVIVEPMEQFDDEDGLPEKLMQKTQQYHKEREQPPRFAQPGTFEFEYASRWKALDEMEKQQREQVDRNIREAKEKLEAEMEAARHEHQLMLMRQDLMRRQEELRRLEELRNQELQKRKQIQLRHEEEHRRREEEMIRHREQEELRRQQEGGFKPNYMENREQEMRMGDMGPRGAINMGDAFSPAPAGTQGPPPMMGMNMNNRGTIPGPPMGPGPAMGPEGAANMGTPMIPDNGAVHNDRFPQGPPSQMGSPMGNRTGSETPQAPMSGVGPVSGGPGGFGRGSQGGNFEGPNKRRRY | binds
Arid4b (protein, UniProt A2CG63 1-1314) MKALDEPPYLTVGTDVSAKYRGAFCEAKIKTAKRLVKVKVTFRHDSSTVEVQDDHIKGPLKVGAIVEVKNLDGAYQEAVINKLTDASWYTVVFDDGDEKTLRRSSLCLKGERHFAESETLDQLPLTNPEHFGTPVIGKKTNRGRRSNHIPEEESSSSSSDDDEEERKQTDELLGKVVCVDYVSLEKKKAMWFPALVVCPDCSDEIAVKKDNILVRSFKDGKFTSVPRKDVHEITSDTVPKPDAVLKQAFDQALEFHKSRAIPANWKTELKEDSSSSEAEEEEEEEDDEKEKEDNSSEEEEEIEPFPEERENFLQQLYKFMEDRGTPINKRPVLGYRNLNLFKLFRLVHKLGGFDNIESGAVWKQVYQDLGIPVLNSAAGYNVKCAYKKYLYGFEEYCRSANIDFQMALPEKVLNKPCKDCENKEVKVKEESETEIKEVNVEDSKNVMPKEETPAEDESERKENIKPSLGSKKSLLECIPAQSDEEKEAHITKLEENENLEDKDGGRARTEEAFSTEVDGEEEQARSGDETNKEEDEDDEEIEEEEEEDEEEDEDEDDDDNNEEEEFECYPPGMKVQVRYGRGKNQKMYEASIKDSDVEGGEALYLVHYCGWNVRYDEWIKADKIVRPADKNVPKIKHRKKIKNKLDKEKDRDEKYSPKNCKLRRLSKSPFQSNPSPEMVSKLDLADAKNSDTAHIKSIEITSILNGLQASESSAEDSEQEDERCTQDVDNIGKDESKVEHSTHSRNELISKEEQSSPSLLEENKVHTDLVIAKTVSKSPERLRKDMEAISEDTDFEEEDEITKKRKDVKKDTTDKALKPQTKRGKRRYCSADECLQTGSPGKKEDRTKSKEPLCTENSSNSSSDEDEEEKSKAKMTPTKKYNGLEEKRKSLRTTSFYSGFSEVAEKRIKLLNNSDERLQNNRAKDRKDVWSSIQGQWPKKTLKELFSDSDTEAAASPPHPAPDEGAVEESLQTVAEEESCSPIMELEKPLPASVDNKPIEEKPLEVSDRKTEFPSSGSNSVLNTPPTTPESPSSVTITEASQQQSSVTVSVPLPPNQEEVRSIKSETDSTIEVDSVVGELQDLQSEGNSSPAGFDASVSSSSSNQPEPDNPEKACTGQKRVKDTQGVGSSSKKQKRSHKATVVNNKKKGKGTNSSDSEELSAGESVTKTQTIKSVPTGMKTHNSKSPARVQSPGKGGRNGDKDPDLKEPSNRLPKVYKWSFQTSDLENMTSAERISILQEKLQEIRKHYLSLKSEVASIDRRRKRLKKKERESAATSSSSSSPSSSSITAAVMLTLAEPSMSSASQNGMSVECR | binds
Sap30 (protein, UniProt O88574 1-220) MNGFTPEEMSRGGDAAAAVAAVVAAAAAAASAGNGNAAGGGAEVPGAGAVSASGPPGAAGPGPGQLCCLREDGERCGRAAGNASFSKRIQKSISQKKVKIELDKSARHLYICDYHKNLIQSVRNRRKRKGSDDDGGDSPVQDIDTPEVDLYQLQVNTLRRYKRHFKLPTRPGLNKAQLVEIVGCHFKSIPVNEKDTLTCFIYSVRNDKNKSDLKADSGVH | binds

Second part, the molecule after the results:

binding | Molecule
binds | Foxk2 (from UniProt Q3UCQ1 1-651)
binds | Phf23 (from UniProt Q8BSN5 1-401)
binds | Ppp1cc (from UniProt P63087 1-323)
binds | DnaJ homolog subfamily B member 6 (from UniProt O54946 1-365)
binds | Sap30l (protein, UniProt Q5SQF8 1-182) MNGFSTEEDSREGPPAAPAAAPGYGQSCCLIADGERCVRPAGNASFSKRVQKSISQKKLKLDIDKSVRHLYICDFHKNFIQSVRNKRKRKASDDGGDSPEHDADIPEVDLFQLQVNTLRRYKRHYKLQTRPGFNKAQLAETVSRHFRNIPVNEKETLAYFIYMVKSNRSRLDQKSEGSKQLE
binds | GATA-like protein 1 (protein, UniProt Q1WG82 1-266) MEAAQAGDLTRRQELLAPPCLDTESLRKSRPPALEPGALRCLTPNIRSLWPTCQDSVSTALPFLQEKEKGLPGSPSPATQVLGSCWELMVIGMSDHLSMARNPRGTQCPNLEISSATSPASLQRRPRKQLNPRMGIEKVDPRFKGVTLEFQIQPDSSLQIVPTYSLPGRSCSQKLPASPSKALASPGSSEALGPRRCASCRTQRTPLWRDAEDGTPLCNACGIRYKKYGTRCSSCWLVPRKSIQPKRLCGRCGMSQDPHLSPTQEL
binds | Ogt (O-linked N-acetylglucosamine transferase) (protein, UniProt Q8CGY8 1-1046) MASSVGNVADSTEPTKRMLSFQGLAELAHREYQAGDFEAAERHCMQLWRQEPDNTGVLLLLSSIHFQCRRLDRSAHFSTLAIKQNPLLAEAYSNLGNVYKERGQLQEAIEHYRHALRLKPDFIDGYINLAAALVAAGDMEGAVQAYVSALQYNPDLYCVRSDLGNLLKALGRLEEAKACYLKAIETQPNFAVAWSNLGCVFNAQGEIWLAIHHFEKAVTLDPNFLDAYINLGNVLKEARIFDRAVAAYLRALSLSPNHAVVHGNLACVYYEQGLIDLAIDTYRRAIELQPHFPDAYCNLANALKEKGSVAEAEDCYNTALRLCPTHADSLNNLANIKREQGNIEEAVRLYRKALEVFPEFAAAHSNLASVLQQQGKLQEALMHYKEAIRISPTFADAYSNMGNTLKEMQDVQGALQCYTRAIQINPAFADAHSNLASIHKDSGNIPEAIASYRTALKLKPDFPDAYCNLAHCLQIVCDWTDYDERMKKLVSIVAEQLEKNRLPSVHPHHSMLYPLSHGFRKAIAERHGNLCLDKINVLHKPPYEHPKDLKLSDGRLRVGYVSSDFGNHPTSHLMQSIPGMHNPDKFEVFCYALSPDDGTNFRVKVMAEANHFIDLSQIPCNGKAADRIHQDGIHILVNMNGYTKGARNELFALRPAPIQAMWLGYPGTSGALFMDYIITDQETSPAEVAEQYSEKLAYMPHTFFIGDHANMFPHLKKKAVIDFKSNGHIYDNRIVLNGIDLKAFLDSLPDVKIVKMKCPDGGDNPDSSNTALNMPVIPMNTIAEAVIEMINRGQIQITINGFSISNGLATTQINNKAATGEEVPRTIIVTTRSQYGLPEDAIVYCNFNQLYKIDPSTLQMWANILKRVPNSVLWLLRFPAVGEPNIQQYAQNMGLPQNRIIFSPVAPKEEHVRRGQLADVCLDTPLCNGHTTGMDVLWAGTPMVTMPGETLASRVAASQLTCLGCLELIAKSRQEYEDIAVKLGTDLEYLKKIRGKVWKQRISSPLFNTKQYTMELERLYLQMWEHYAAGNKPDHMIKPVEVTESA
binds | Ing2 (protein, UniProt Q9ESK4 1-281) MLGQQQQQQLYSSAALLTGERSRLLSCYVQDYLECVESLPHDMQRNVSVLRELDNKYQETLKEIDDVYEKYKKEDDSNQKKRLQQHLQRALINSQELGDEKIQIVTQMLELVENRARQMELHSQCFQDPAESERASDKSKMDSSQPERSSRRPRRQRTSESRDLCHMTNGIDDCDDQPPKEKRSKSAKKKKRSKAKQEREASPVEFAIDPNEPTYCLCNQVSYGEMIGCDNEQCPIEWFHFSCVSLTYKPKGKWYCPKCRGDNEKTMDKSTEKTKKERRAR
